# Test results from publication PMC10550928.
# Results are given in words; binding and its absence hold for the method and conditions named. Binding seen in cells or lysates may run through a third protein. These calls come from enrichment with a bait or labelling near it, and not all partners need be listed. Where a sequence is shown, tags or fusion partners need not be part of it.
# T1: MeeF-FLAG (B. subtilis) (UniProt O34447)
# T1 sequence: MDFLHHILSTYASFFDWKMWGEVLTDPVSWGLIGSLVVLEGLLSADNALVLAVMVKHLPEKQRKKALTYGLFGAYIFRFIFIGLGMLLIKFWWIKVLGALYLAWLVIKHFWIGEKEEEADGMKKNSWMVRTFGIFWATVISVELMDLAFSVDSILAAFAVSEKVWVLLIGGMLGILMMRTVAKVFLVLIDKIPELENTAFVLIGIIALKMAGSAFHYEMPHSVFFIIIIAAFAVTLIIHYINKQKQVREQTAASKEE
# T2: MeeY-FLAG (B. subtilis) (UniProt O34997)
# T2 sequence: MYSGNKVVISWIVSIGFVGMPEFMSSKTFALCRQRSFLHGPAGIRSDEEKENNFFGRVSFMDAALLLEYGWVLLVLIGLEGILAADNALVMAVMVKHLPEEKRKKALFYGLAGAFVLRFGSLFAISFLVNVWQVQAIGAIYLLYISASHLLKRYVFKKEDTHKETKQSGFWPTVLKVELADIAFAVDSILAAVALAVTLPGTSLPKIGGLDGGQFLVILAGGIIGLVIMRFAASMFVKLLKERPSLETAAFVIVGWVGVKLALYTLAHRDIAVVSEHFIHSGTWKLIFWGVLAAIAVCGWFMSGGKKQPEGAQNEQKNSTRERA
# B1: PrsA (protein, UniProt P24327 20-292)
# chain: CSSGDKEVIAKTDAGDVTKGELYTNMKKTAGASVLTQLVQEKVLDKKYKVSDKEIDNKLKEYKTQLGDQYTALEKQYGKDYLKEQVKYELLTQKAAKDNIKVTDADIKEYWEGLKGKIRASHILVADKKTAEEVEKKLKKGEKFEDLAKEYSTDSSASKGGDLGWFAKEGQMDETFSKAAFKLKTGEVSDPVKTQYGYHIIKKTEERGKYDDMKKELKSEVLEQKLNDNAAVQEAVQKVMKKADIEVKDKDLKDTFNTSSTSNSTSSSSSNSK
# B2: YknW (protein, UniProt O31709 1-231)
# chain: METNVEKNSGTATEKPSLFGVITSPSVQFERIRERPAVWGPLLIVAAIIIVGAVLQSLGTDYSELLKSQDTQGLSAEQMETVATITKFGGMAGAIIGGIAALFIAPLIYWLCVKVSGGVTTYKKMLSLSLFVSLISSLGLLVNGIVAFTTDVNPLYSTTSLAGIIPSDGALASVLNTFEIFSIWSFVLLAIGLHKTGGISKKAGWISAIILFGILVVFSLFSGLINSVAGA
# B3: SecDF (protein, UniProt O32047 1-737)
# chain: MKKGRLIAFFLFVLLIGTGLGYFTKPAANNITLGLDLQGGFEVLYDVQPVKKGDKITKDVLVSTVEALNRRANVLGVSEPNIQIEGNNRIRVQLAGVTNQNRAREILATEAQLSFRDANDKELLNGADLVENGAKQTYDSTTNEPIVTIKLKDADKFGEVTKKVMKMAPNNQLVIWLDYDKGDSFKKEVQKEHPKFVSAPNVSQELNTTDVKIEGHFTAQEAKDLASILNAGALPVKLTEKYSTSVGAQFGQQALHDTVFAGIVGIAIIFLFMLFYYRLPGLIAVITLSVYIYITLQIFDWMNAVLTLPGIAALILGVGMAVDANIITYERIKEELKLGKSVRSAFRSGNRRSFATIFDANITTIIAAVVLFIFGTSSVKGFATMLILSILTSFITAVFLSRFLLALLVESRWLDRKKGWFGVNKKHIMDIQDTDENTEPHTPFQKWDFTSKRKYFFIFSSAVTVAGIIILLVFRLNLGIDFASGARIEVQSDHKLTTEQVEKDFESLGMDPDTVVLSGEKSNIGVARFVGVPDKETIAKVKTYFKDKYGSDPNVSTVSPTVGKELARNALYAVAIASIGIIIYVSIRFEYKMAIAAIASLLYDAFFIVTFFSITRLEVDVTFIAAILTIIGYSINDTIVTFDRVREHMKKRKPKTFADLNHIVNLSLQQTFTRSINTVLTVVIVVVTLLIFGASSITNFSIALLVGLLTGVYSSLYIAAQIWLAWKGRELKKDSAQ
# B4: MgtE (protein, UniProt O34442 1-451)
# chain: MVQNMTYDELILRIIILLRDGKIRDFRSVIDELQPYDMAFIFKEMPEKHRARYLSYLTVDDITDMIGELEREFQLVVLNKVGKTKATLAMNKMDNDDLAQLLEEMDEELKEQLLSSMEASESKAVQLLMNYPADSAGRMMTNRYVWIPQHYTVKDAVVKLKSFAEIAESINYLYVINESKQLVGVLSYRDLILGEPEEKVQDLMFTRVISADALQDQEEVARLIERYDFLAIPVVEENNVLVGIVTVDDIIDVVIREADEDYEKFAASGKDITFDTKAYVAAYRRLPWLILLLFIGLISGSIISYFEDALKQVVALAFFMPMVSGMTGNTGTQSLAVVIRGLSKEEMNKKTIVRLIFREFRTSIFIGAVCSVLIAIVSIIWQGNALLGFVVASSLFLTLIIGTMSGTIIPIILHKLKVDPAIASGPLITTLNDILSLLIYFGIATAFIHSL
# Target: T1, MeeF-FLAG (B. subtilis)
# Assay: affinity purification with mass spectrometry; anti-FLAG M2 magnetic beads on lysates (1% Triton X-100) of B. subtilis grown overnight in LB with 50 uM Mn; 30 °C for 3 h; washed with 1X PBS; eluted by heating at 95 °C in 2X Laemmli sample buffer; LC-MS/MS; membrane proteins found in the sample but not in the untagged WT controls
row,binding,Binder
1,binds,B1
2,binds,B2
3,binds,B3

# Target: T2, MeeY-FLAG (B. subtilis)
# Assay: as above
row,binding,Binder
1,binds,B1
2,binds,B2
3,binds,B3

# Target: T2, MeeY-FLAG (B. subtilis)
# Assay: affinity purification with mass spectrometry; anti-FLAG M2 magnetic beads on lysates (1% Triton X-100) of B. subtilis grown overnight in LB with 50 uM Mn; 30 °C for 3 h; washed with 1X PBS; eluted by glycine (pH 3.0) for 30 min; LC-MS/MS; membrane proteins found in the sample but not in the untagged WT controls
row,binding,Binder
1,binds,B1
2,binds,B4
3,binds,B3
